From the supplement of paper PMC4604168 (melanoma cell lines)
Some of the results follow. Many values rest on one well or one pass, so single values are uncertain.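 Cells were imaged in 1,536-well plates, and nuclei stained with an antibody against cleaved PARP were counted against all DNA-stained nuclei to give the apoptosis fraction. Screening doses were chosen to leave most cells alive, and resting and induced cleaved-PARP levels differ strongly between cell lines.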

How the values were obtained:
Assay in all cases: cleaved PARP positive nuclei fraction relative to DMSO control; melanoma cells; higher = more apoptosis
Conditions in all cases: library dose: low library concentration; 72 h
MZ2-MEL = system: MZ2-MEL
MeWo = system: MeWo
RPMI7951 = system: RPMI7951
RVH-421 = system: RVH-421
SkMel28 = system: SkMel28
SkMel30 = system: SkMel30
SkMel5 = system: SkMel5
UACC257 = system: UACC257
UACC62 = system: UACC62

| Compound | cleaved PARP positive nuclei fraction (MZ2-MEL) | cleaved PARP positive nuclei fraction (MeWo) | cleaved PARP positive nuclei fraction (RPMI7951) | cleaved PARP positive nuclei fraction (RVH-421) | cleaved PARP positive nuclei fraction (SkMel28) | cleaved PARP positive nuclei fraction (SkMel30) | cleaved PARP positive nuclei fraction (SkMel5) | cleaved PARP positive nuclei fraction (UACC257) | cleaved PARP positive nuclei fraction (UACC62) |
| --- | --- | --- | --- | --- | --- | --- | --- | --- | --- |
| CN(C)S(=O)(=O)c1ccc2c(c1)/C(=C/c1cc3c([nH]1)CCCC3)C(=O)N2 + COc1ccc2c(c1)CCC1C2CCC2(C)C(NCCCCCCN3C(=O)C=CC3=O)CCC12 [U73122] (first compound 0.4 µM, partner dose 0.4 µM) | 206% | 59% | 132% | 126% | 49.7% | 169% | 39.1% | 74.2% | 88.6% |
| NCC(=O)Nc1ccc(-n2nc(C(F)(F)F)cc2-c2ccc3c(ccc4ccccc43)c2)cc1 + O=C(Nc1ccccc1)c1cc([N+](=O)[O-])ccc1Cl [GW9662] (first compound 1 µM, partner dose 2 µM) | 210% | 404% | 42.5% | 102% | 136% | 38.4% | 63.5% | 244% | 180% |
| N#Cc1c(O)c2c(-c3ccc(-c4ccccc4O)cc3)csc2[nH]c1=O + COc1cc(N2CCC(N3CCN(C)CC3)CC2)ccc1Nc1ncc(Cl)c(Nc2ccccc2S(=O)(=O)C(C)C)n1 [NVP-TAE684] (first compound 2 µM, partner dose 0.08 µM) | 178% | 26.1% | 20.1% | 270% | 203% | 11.6% | 150% | 86.5% | 40.2% |
| Oc1cc(-c2nc(-c3ccccc3)[nH]c2-c2ccncc2)ccc1Cl + Oc1nc(-c2ccc(C(F)(F)F)cc2)nc2c1CSCC2 [XAV939] (first compound 0.2 µM, partner dose 2 µM) | 53.3% | 53.5% | 153% | 104% | 157% | 179% | 37.5% | 119% | 92.7% |
| CN(C)S(=O)(=O)c1ccc2c(c1)/C(=C/c1cc3c([nH]1)CCCC3)C(=O)N2 + O=C(Nc1ccccc1)c1cc([N+](=O)[O-])ccc1Cl [GW9662] (first compound 0.4 µM, partner dose 2 µM) | 154% | 169% | 86.9% | 82.6% | 123% | 130% | 137% | 108% | 46.9% |
| COC(=O)c1sccc1S(=O)(=O)Nc1ccc(Nc2ccccc2)cc1OC + CCN(CC)CCCCNc1ncc2cc(-c3cc(OC)cc(OC)c3)c(NC(=O)NC(C)(C)C)nc2n1 [PD173074] (first compound 1 µM, partner dose 0.1 µM) | 293% | 139% | 82.1% | 60.4% | 151% | 146% | 40.6% | 189% | 80.5% |
| CN(NC(=O)CC(=O)NN(C)C(=S)c1ccccc1)C(=S)c1ccccc1 + Cn1cc(/C=C2\C(=O)Nc3cccnc32)c2ccccc21 [GW441756] (first compound 0.006 µM, partner dose 0.4 µM) | 132% | 135% | 90.1% | 80.2% | 137% | 38.8% | 85.1% | 139% | 395% |
| COc1cc2c(Oc3ccc4[nH]c(C)cc4c3F)ncnc2cc1OCCCN1CCCC1 [cediranib] + COc1cc(N2CCC(N3CCN(C)CC3)CC2)ccc1Nc1ncc(Cl)c(Nc2ccccc2S(=O)(=O)C(C)C)n1 [NVP-TAE684] (first compound 0.4 µM, partner dose 0.08 µM) | 115% | 121% | 41.8% | 56.7% | 95.1% | 25.5% | 62.4% | 277% | 46.6% |
| CN(C)S(=O)(=O)c1ccc2c(c1)/C(=C/c1cc3c([nH]1)CCCC3)C(=O)N2 + Cc1cc([N+](=O)[O-])ccc1NS(=O)(=O)c1cc(Cl)ccc1Cl [FH535] (first compound 0.4 µM, partner dose 1 µM) | 125% | 224% | 45.8% | 88.4% | 191% | 88.5% | 50.7% | 89.7% | 265% |
| CCc1ccc(CCOc2ccc(CC3SC(=O)NC3=O)cc2)nc1 (centres undefined) [pioglitazone] + c1cc(-c2cnn3cc(-c4ccc(OCCN5CCCCC5)cc4)cnc23)ccn1 [Dorsomorphin] (first compound 2 µM, partner dose 0.4 µM) | 174% | 25.6% | 88% | 222% | 196% | 38% | 33.1% | 117% | 147% |
| CN(NC(=O)CC(=O)NN(C)C(=S)c1ccccc1)C(=S)c1ccccc1 + COc1ccc(-c2ccc3c(N4CCOCC4)nc(N4C[C@@H](C)O[C@@H](C)C4)nc3n2)cc1CO [KU0063794] (first compound 0.006 µM, partner dose 0.02 µM) | 92% | 101% | 40.6% | 237% | 96.1% | 365% | 128% | 87.2% | 190% |
| O=C(O)c1ccc(-c2c[nH]c3ncc(-c4ccccc4)cc23)cc1C1CCCC1 + O=S(=O)(c1ccccc1)N(CC(F)(F)F)c1ccc(C(O)(C(F)(F)F)C(F)(F)F)cc1 [T0901317] (first compound 0.16 µM, partner dose 1.4 µM) | 90.6% | 82.5% | 78% | 54.5% | 47.7% | 42.2% | 54.3% | 32% | 254% |
| O=C1NC(=O)/C(=C/c2ccc(-c3ccc(F)cc3O)o2)S1 + c1cc(-c2cnn3cc(-c4ccc(OCCN5CCCCC5)cc4)cnc23)ccn1 [Dorsomorphin] (first compound 1 µM, partner dose 0.4 µM) | 81.8% | 53.9% | 37.9% | 34.8% | 116% | 63.6% | 34.5% | 97.3% | 80.6% |
| O=C(O)c1ccc(-c2c[nH]c3ncc(-c4ccccc4)cc23)cc1C1CCCC1 + CC(C)CCN1c2nc(Nc3cc(F)c(O)c(F)c3)ncc2N(C)C(=O)C1C [BID1870] (first compound 0.16 µM, partner dose 0.2 µM) | 136% | 164% | 19.2% | 28.4% | 520% | 14.1% | 48.2% | 131% | 89.1% |
| COc1cc2ncnc(Nc3ccc(Oc4ccccc4)cc3)c2cc1OC + Oc1cc(-c2nc(-c3ccccc3)[nH]c2-c2ccncc2)ccc1Cl [L779450] (first compound 2 µM, partner dose 0.2 µM) | 109% | 92.9% | 76.8% | 73.3% | 198% | 318% | 58.5% | 111% | 157% |
| O=C(O)c1ccc(-c2c[nH]c3ncc(-c4ccccc4)cc23)cc1C1CCCC1 + CCCCCCCCCCCC1=C(O)C(=O)C=C(O)C1=O [Embelin] (first compound 0.16 µM, partner dose 1.2 µM) | 376% | 33.3% | 41.8% | 352% | 75.3% | 11.6% | 71.9% | 85.8% | 178% |
| Cc1cc([N+](=O)[O-])ccc1NS(=O)(=O)c1cc(Cl)ccc1Cl + c1cc(-c2cnn3cc(-c4ccc(OCCN5CCCCC5)cc4)cnc23)ccn1 [Dorsomorphin] (first compound 1 µM, partner dose 0.4 µM) | 90.9% | 125% | 197% | 17.9% | 73.9% | 58.4% | 197% | 135% | 188% |
| COc1cc2c(Oc3ccc4[nH]c(C)cc4c3F)ncnc2cc1OCCCN1CCCC1 [cediranib] + CCN(CC)CCCCNc1ncc2cc(-c3cc(OC)cc(OC)c3)c(NC(=O)NC(C)(C)C)nc2n1 [PD173074] (first compound 0.4 µM, partner dose 0.1 µM) | 28% | 102% | 46% | 83.9% | 145% | 48.1% | 53% | 53.6% | 78% |
| O=C(Nc1ccccc1)c1cc([N+](=O)[O-])ccc1Cl + COC(=O)c1sccc1S(=O)(=O)Nc1ccc(Nc2ccccc2)cc1OC [GSK0660] (first compound 2 µM, partner dose 1 µM) | 111% | 113% | 158% | 28.4% | 149% | 54.7% | 116% | 92.6% | 330% |
| COc1cc2c(Oc3ccc4[nH]c(C)cc4c3F)ncnc2cc1OCCCN1CCCC1 [cediranib] + Cc1cc([N+](=O)[O-])ccc1NS(=O)(=O)c1cc(Cl)ccc1Cl [FH535] (first compound 0.4 µM, partner dose 1 µM) | 142% | 105% | 87% | 71.8% | 169% | 54.5% | 80.4% | 52.5% | 51.9% |
| CCc1ccc(CCOc2ccc(CC3SC(=O)NC3=O)cc2)nc1 (centres undefined) [pioglitazone] + COc1cc2ncnc(Nc3ccc(Oc4ccccc4)cc3)c2cc1OC [SrcI1] (first compound 2 µM, partner dose 2 µM) | 114% | 27.5% | 119% | 62.2% | 225% | 37.4% | 68.5% | 180% | 837% |
| COc1ccc(-c2ccc3c(N4CCOCC4)nc(N4C[C@@H](C)O[C@@H](C)C4)nc3n2)cc1CO + COc1ccc(COc2ccc(Cc3cnc(N)nc3N)cc2OC)cc1 [GW2580] (first compound 0.02 µM, partner dose 1 µM) | 93.3% | 67.1% | 84.7% | 53% | 134% | 470% | 27.8% | 29.5% | 75.2% |
| COc1cc2ncnc(Nc3ccc(Oc4ccccc4)cc3)c2cc1OC + CCCCCCCCCCCC1=C(O)C(=O)C=C(O)C1=O [Embelin] (first compound 2 µM, partner dose 1.2 µM) | 60.8% | 105% | 37.2% | 127% | 135% | 53.3% | 51.5% | 101% | 38.4% |
| O=C(Nc1ccccc1)c1cc([N+](=O)[O-])ccc1Cl + CC(C)CCN1c2nc(Nc3cc(F)c(O)c(F)c3)ncc2N(C)C(=O)C1C [BID1870] (first compound 2 µM, partner dose 0.2 µM) | 202% | 65.5% | 66.2% | 45.6% | 264% | 34.5% | 95.7% | 240% | 122% |
| O=C(Nc1ccccc1)c1cc([N+](=O)[O-])ccc1Cl + Cc1cc([N+](=O)[O-])ccc1NS(=O)(=O)c1cc(Cl)ccc1Cl [FH535] (first compound 2 µM, partner dose 1 µM) | – | 261% | 75.1% | 77.4% | 33.7% | 26.9% | 46% | 97.7% | 580% |

An excerpt from above, showing only cleaved PARP positive nuclei fraction (UACC257), cleaved PARP positive nuclei fraction (SkMel28) and cleaved PARP positive nuclei fraction (RVH-421).
Compound | cleaved PARP positive nuclei fraction (UACC257) | cleaved PARP positive nuclei fraction (SkMel28) | cleaved PARP positive nuclei fraction (RVH-421)
CN(C)S(=O)(=O)c1ccc2c(c1)/C(=C/c1cc3c([nH]1)CCCC3)C(=O)N2 + COc1ccc2c(c1)CCC1C2CCC2(C)C(NCCCCCCN3C(=O)C=CC3=O)CCC12 [U73122] (first compound 0.4 µM, partner dose 0.4 µM) | 74.2% | 49.7% | 126%
O=C1NC(=O)/C(=C/c2ccc(-c3ccc(F)cc3O)o2)S1 + c1cc(-c2cnn3cc(-c4ccc(OCCN5CCCCC5)cc4)cnc23)ccn1 [Dorsomorphin] (first compound 1 µM, partner dose 0.4 µM) | 97.3% | 116% | 34.8%
